Among the data in paper PMC5338267 are binding values, retold here.

The chains behind the UniProt entries cited, without tags or fusion partners.
UniProt P17931: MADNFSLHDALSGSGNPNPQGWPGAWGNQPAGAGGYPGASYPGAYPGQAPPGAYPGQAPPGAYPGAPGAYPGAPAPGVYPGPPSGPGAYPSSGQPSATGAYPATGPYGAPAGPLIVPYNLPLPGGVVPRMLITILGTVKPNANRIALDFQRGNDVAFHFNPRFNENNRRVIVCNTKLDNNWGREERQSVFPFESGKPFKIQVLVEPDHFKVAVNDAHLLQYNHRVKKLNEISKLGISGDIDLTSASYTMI

No constants are given. Whether binding was seen depends on the method and setting. In cells and extracts the contact can be indirect. Some binding calls cover weakened binding; strength is not graded here.

The experiment deals with Galectin-3 (human (endogenous in CAPAN-1-derived Sc cells)) (UniProt P17931). Description: co-IP; 300 μg total protein from formaldehyde (PFA) cross-linked Sc cells; IP with 2 μg anti-Galectin-3 antibody (Santa Cruz sc-20157) or isotype-matched rabbit IgG; western blot for hnRNP-L; cells untreated or treated with nocodazole (400 ng/ml, 16 h).

B1: hnRNP-L (protein, UniProt P14866 1-589)
chain: MSRRLLPRAEKRRRRLEQRQQPDEQRRRSGAMVKMAAAGGGGGGGRYYGGGSEGGRAPKRLKTDNAGDQHGGGGGGGGGAGAAGGGGGGENYDDPHKTPASPVVHIRGLIDGVVEADLVEALQEFGPISYVVVMPKKRQALVEFEDVLGACNAVNYAADNQIYIAGHPAFVNYSTSQKISRPGDSDDSRSVNSVLLFTILNPIYSITTDVLYTICNPCGPVQRIVIFRKNGVQAMVEFDSVQSAQRAKASLNGADIYSGCCTLKIEYAKPTRLNVFKNDQDTWDYTNPNLSGQGDPGSNPNKRQRQPPLLGDHPAEYGGPHGGYHSHYHDEGYGPPPPHYEGRRMGPPVGGHRRGPSRYGPQYGHPPPPPPPPEYGPHADSPVLMVYGLDQSKMNCDRVFNVFCLYGNVEKVKFMKSKPGAAMVEMADGYAVDRAITHLNNNFMFGQKLNVCVSKQPAIMPGQSYGLEDGSCSYKDFSESRNNRFSTPEQAAKNRIQHPSNVLHFFNAPLEVTEENFFEICDELGVKRPSSVKVFSGKSERSSSGLLEWESKSDALETLGFLNHYQMKNPNGPYPYTLKLCFSTAQHAS
With B1, the binding entry is listed as “binds”.
